PMC9747930

By UniProt entry, the sequences of proteins in these tests, tags left out.
UniProt Q155P7: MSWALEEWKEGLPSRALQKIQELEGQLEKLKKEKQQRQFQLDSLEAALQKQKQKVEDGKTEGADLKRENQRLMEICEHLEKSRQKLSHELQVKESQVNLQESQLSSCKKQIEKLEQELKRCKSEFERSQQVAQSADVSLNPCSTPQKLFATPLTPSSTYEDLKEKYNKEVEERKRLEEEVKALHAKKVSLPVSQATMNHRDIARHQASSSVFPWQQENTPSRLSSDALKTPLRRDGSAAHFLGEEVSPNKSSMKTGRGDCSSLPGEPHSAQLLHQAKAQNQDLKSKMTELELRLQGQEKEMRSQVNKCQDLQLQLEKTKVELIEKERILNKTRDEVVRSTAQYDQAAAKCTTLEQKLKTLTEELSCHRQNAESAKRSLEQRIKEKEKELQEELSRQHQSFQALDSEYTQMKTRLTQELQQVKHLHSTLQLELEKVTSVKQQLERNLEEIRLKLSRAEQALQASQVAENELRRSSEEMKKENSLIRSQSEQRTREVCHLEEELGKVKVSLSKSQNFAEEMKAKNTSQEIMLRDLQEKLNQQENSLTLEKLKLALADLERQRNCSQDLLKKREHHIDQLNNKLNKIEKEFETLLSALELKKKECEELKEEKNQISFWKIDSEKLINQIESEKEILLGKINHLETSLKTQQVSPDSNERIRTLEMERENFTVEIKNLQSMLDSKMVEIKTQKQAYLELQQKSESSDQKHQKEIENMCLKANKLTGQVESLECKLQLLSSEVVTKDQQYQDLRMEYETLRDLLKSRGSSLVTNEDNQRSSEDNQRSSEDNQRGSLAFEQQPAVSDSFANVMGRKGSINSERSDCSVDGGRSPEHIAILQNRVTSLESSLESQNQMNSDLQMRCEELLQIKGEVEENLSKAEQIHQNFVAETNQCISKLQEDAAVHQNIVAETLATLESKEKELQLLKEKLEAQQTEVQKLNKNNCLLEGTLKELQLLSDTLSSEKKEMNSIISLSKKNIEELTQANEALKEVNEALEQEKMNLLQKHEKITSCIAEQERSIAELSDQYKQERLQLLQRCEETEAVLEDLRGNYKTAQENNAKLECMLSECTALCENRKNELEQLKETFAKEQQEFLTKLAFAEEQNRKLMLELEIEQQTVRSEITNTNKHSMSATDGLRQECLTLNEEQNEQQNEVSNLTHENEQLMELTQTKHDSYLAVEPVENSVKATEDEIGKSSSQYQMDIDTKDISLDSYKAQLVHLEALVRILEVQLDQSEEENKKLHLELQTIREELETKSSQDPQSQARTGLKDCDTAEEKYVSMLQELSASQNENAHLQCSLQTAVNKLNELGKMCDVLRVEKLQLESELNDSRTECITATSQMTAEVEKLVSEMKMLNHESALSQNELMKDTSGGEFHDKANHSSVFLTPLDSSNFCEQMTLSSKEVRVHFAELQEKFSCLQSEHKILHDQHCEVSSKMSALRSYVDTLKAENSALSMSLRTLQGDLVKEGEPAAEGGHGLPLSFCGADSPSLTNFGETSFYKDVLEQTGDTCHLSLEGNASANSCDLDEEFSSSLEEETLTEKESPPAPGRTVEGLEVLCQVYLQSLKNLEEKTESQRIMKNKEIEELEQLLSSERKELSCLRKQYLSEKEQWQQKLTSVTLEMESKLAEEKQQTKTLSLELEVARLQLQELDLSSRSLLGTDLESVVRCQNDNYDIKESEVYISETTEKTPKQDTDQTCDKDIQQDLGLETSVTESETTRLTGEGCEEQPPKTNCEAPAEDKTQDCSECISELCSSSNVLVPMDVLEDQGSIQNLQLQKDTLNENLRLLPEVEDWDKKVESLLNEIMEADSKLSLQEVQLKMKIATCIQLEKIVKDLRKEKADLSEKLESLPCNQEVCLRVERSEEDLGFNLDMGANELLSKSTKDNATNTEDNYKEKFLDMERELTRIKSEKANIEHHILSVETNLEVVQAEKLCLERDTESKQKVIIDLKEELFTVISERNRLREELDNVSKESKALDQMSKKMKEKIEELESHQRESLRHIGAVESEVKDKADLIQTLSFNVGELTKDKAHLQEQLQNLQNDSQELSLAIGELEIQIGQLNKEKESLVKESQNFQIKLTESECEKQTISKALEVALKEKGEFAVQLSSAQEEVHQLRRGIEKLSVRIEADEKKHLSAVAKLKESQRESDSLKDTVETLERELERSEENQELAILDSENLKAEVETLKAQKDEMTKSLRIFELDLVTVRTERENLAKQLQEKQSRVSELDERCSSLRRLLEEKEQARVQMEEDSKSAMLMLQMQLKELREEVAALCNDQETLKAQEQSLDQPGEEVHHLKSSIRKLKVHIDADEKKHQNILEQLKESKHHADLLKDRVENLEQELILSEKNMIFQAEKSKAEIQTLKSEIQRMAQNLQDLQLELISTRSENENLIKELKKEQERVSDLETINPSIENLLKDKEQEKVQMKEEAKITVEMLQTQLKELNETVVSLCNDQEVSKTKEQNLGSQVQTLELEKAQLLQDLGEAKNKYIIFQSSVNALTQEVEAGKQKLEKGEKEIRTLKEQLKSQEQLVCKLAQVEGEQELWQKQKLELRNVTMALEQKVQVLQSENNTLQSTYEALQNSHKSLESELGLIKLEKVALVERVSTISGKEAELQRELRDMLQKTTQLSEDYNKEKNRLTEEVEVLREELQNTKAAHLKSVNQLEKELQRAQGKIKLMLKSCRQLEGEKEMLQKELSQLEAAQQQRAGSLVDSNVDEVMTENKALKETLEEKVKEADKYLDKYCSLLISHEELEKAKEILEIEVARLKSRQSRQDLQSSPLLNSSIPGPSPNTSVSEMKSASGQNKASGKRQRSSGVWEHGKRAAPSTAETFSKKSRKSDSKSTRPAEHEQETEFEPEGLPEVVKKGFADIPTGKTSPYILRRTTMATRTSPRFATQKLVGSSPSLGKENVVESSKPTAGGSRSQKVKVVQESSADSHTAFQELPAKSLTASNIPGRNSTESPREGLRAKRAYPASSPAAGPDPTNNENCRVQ
UniProt Q8K1M6: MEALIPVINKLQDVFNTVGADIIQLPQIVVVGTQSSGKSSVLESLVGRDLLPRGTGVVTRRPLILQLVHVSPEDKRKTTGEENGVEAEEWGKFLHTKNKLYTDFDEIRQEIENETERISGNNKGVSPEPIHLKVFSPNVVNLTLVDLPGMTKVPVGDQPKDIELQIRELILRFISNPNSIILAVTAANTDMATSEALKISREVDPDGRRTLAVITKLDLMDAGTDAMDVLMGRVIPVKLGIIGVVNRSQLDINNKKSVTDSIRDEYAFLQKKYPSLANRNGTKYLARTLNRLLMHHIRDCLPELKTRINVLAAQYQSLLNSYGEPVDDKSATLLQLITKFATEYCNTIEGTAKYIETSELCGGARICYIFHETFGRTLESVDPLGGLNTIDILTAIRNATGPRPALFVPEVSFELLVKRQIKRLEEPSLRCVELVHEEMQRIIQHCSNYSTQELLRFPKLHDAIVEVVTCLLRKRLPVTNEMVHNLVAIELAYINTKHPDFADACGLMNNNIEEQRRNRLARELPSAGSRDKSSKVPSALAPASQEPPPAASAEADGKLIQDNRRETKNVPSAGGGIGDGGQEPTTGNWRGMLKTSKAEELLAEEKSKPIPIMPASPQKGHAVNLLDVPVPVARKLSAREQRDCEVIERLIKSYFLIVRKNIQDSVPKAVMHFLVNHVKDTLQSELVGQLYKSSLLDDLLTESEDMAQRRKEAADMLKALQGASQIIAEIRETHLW

Biological target: Centromere protein F (CENP-F) (mouse (endogenous in oocytes)) (UniProt Q155P7)
Assay: affinity purification with mass spectrometry; CENP-F immunoprecipitation from 1000 GV, MI and MII stage mouse oocytes; eluates on SDS-PAGE, silver staining, bands common to each stage analysed with MALDI/MS

- binding: binds
Substance: Dynamin-related protein 1 (DRP1) (from UniProt Q8K1M6 1-736)

Results are given in words; binding and its absence hold for the method and conditions named. In cells and extracts the contact can be indirect. Here binding means that the protein was enriched with, or labelled near, the bait; the list need not be complete.
